From PMC7093809

Sequences of proteins named here, by UniProt entry; tags and fusion partners are left off. A change or cut given only in a name is not applied to a line headed by its entry.
UniProt O60674: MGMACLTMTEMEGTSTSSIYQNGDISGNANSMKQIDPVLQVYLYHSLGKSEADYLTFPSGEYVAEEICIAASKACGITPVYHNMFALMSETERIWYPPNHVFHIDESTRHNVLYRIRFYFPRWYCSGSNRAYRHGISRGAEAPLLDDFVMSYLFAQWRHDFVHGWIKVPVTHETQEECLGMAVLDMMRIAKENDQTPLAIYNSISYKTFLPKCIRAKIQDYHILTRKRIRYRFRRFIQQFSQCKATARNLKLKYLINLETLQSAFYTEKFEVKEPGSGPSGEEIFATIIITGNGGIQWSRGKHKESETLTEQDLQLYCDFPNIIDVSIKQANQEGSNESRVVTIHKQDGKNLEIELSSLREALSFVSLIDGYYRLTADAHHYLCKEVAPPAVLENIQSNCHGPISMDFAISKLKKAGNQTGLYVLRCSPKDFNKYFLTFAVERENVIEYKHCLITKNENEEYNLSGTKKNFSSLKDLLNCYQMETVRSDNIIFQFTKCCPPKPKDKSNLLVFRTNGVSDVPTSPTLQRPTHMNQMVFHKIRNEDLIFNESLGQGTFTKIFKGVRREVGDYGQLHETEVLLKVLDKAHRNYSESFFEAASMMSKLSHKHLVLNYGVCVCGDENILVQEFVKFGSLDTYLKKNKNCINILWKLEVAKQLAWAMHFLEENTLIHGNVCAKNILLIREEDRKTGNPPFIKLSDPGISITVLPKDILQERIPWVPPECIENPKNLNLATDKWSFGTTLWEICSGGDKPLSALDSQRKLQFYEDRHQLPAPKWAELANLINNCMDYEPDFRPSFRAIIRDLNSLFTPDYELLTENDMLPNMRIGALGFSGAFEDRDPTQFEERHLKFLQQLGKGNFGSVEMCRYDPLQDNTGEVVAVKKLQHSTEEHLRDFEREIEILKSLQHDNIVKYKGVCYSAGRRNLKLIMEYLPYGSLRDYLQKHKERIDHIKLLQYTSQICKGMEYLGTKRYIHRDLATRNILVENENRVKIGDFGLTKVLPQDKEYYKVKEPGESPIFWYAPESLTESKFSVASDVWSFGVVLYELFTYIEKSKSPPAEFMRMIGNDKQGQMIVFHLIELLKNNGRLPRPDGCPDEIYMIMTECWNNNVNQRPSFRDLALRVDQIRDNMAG
UniProt P00797: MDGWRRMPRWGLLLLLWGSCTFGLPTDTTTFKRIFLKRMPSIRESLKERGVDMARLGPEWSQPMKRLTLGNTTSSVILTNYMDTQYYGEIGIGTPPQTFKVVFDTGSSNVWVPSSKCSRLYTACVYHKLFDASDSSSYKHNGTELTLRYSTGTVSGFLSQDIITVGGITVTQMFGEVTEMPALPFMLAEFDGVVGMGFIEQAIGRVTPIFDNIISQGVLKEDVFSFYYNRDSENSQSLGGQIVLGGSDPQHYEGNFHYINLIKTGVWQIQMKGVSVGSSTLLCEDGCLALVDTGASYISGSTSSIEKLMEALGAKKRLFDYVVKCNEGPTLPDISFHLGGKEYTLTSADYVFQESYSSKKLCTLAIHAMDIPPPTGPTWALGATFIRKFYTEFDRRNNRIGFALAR

Assays:
[1] = biological target: T1, signal transducer and activator of transcription 4 (STAT4) (UniProt Q14765); assay: co-IP; Co-IP assay using renin and STAT4 plasmids (Figure S5C); cells not given
T1 sequence: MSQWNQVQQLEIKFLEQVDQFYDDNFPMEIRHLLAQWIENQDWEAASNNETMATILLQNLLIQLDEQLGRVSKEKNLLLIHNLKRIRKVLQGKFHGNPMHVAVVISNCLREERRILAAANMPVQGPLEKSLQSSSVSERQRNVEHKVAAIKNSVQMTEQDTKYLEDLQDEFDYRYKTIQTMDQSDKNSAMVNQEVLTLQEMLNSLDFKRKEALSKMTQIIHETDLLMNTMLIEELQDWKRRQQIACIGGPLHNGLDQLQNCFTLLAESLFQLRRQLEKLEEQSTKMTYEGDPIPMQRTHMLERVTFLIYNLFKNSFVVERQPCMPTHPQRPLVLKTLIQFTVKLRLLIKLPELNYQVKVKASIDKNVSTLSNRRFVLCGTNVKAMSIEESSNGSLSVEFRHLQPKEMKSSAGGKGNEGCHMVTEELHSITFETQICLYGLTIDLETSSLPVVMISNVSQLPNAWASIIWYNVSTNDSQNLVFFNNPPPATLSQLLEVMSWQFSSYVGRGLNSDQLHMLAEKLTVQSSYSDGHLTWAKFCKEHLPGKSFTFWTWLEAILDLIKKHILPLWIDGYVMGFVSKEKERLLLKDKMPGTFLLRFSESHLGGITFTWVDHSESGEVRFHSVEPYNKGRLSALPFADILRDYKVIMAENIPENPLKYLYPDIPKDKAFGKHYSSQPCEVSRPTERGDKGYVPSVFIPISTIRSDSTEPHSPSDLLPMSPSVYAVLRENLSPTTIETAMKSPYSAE

Janus kinase 2 (JAK2) = Janus kinase 2 (JAK2) (UniProt O60674); assay: co-IP; Co-IP and Western blot of cell lysates from HOKs transfected with the indicated plasmids

binding [1]: no binding | binding (Janus kinase 2 (JAK2)): binds
Substance: renin (from UniProt P00797) (enzyme)

No constants are given. Whether binding was seen depends on the method and setting. Binding seen in cells or lysates may run through a third protein. For some assays here: A result given as binding can be weak or reduced; the word gives no strength.
